# Experimental data published in paper PMC11758220, “Identification of a Privileged Scaffold for Inhibition of Sterol Transport Proteins through the Synthesis and Ring Distortion of Diverse, Pseudo-Natural Products” (ACS Central Science, 2025).
# Test system: panel of STPs
# Experiment: Screen against a broad panel of the STPs using FP and DSF assays
# Format: binding, human
# Conditions: single dose data sheet
row,SMILES,Note: interference with FP assays
1,C[C@]12CC[C@@H]3C[C@H]1CC[C@@]21C(=Nc2ccc(-c4ccccc4)cc21)O3 [Compound 21a],"Interfered with ORP1, ORP2, and STARD1 FP assays"
2,COc1ccc2c(c1)[C@@]13CC[C@@H]4C[C@@H](CC[C@@]41C)OC3=N2 [Compound 15f],Interfered with ORP2 FP assay
3,Cc1ccc2c(c1)C(=O)[C@]1(CC[C@@H]3C[C@H](O)CC[C@@]31C)N2 [Compound 13],Interfered with all FP assays
